These results are taken from the supplement of paper PMC9549374.

Some of the results follow. No stated cut-off is given here; in the data, active = 2-fold of DMSO or more and inactive = the rest. Single values of this set are uncertain. Some low values are a fixed figure set by the source, not a measured ratio.

The assay deals with CM7/1-hgem mouse ES cell-derived cardiomyocytes. Description: maximal number of mAG-hGem(1/110)-positive cardiomyocytes over 96 h, fold-change vs DMSO; higher = more cardiomyocyte cell cycle activity. Particulars: 1 µM; 96 (max over 12 h time points) h.
Regarding `CC(=O)Nc1ccc(OC(C)=O)cc1`, the maximal number is inactive: 1. As for `Cc1nc2n(c(=O)c1CCN1CCC(c3noc4cc(F)ccc34)CC1)CCCC2O` (stereo not given), the maximal number was inactive: 1. With `CC1(C)CC23C(=O)CCC(O)C2(C)CCC13` (stereo not given), the maximal number is inactive: 1. Regarding `CCOc1ccc2c(c1)C(C)=CC(C)(C)N2`, the maximal number was inactive: 1. Turning to `CCc1ccc2c(O)c3c(cc2c1C(=O)OC)C(=O)c1c(O)ccc(O)c1C3=O`, the maximal number is inactive: 1. The figure for `O=C1c2ccccc2C(=O)c2c1ccc(O)c2O` is inactive: 0.5; for `COc1cc(/C=C/C(=O)O)cc(OC)c1OC` it is inactive: 1; for `C[C@H]1O[C@@H](n2cc(F)c(=O)[nH]c2=O)[C@H](O)[C@@H]1O` it is inactive: 1. Turning to `c1ccc2c(Cc3c[nH]c4ccccc34)c[nH]c2c1`, the maximal number was inactive: 1. Take `CCCCCc1c2c(cc(O)c1C(=O)O)OC(=O)c1c(cc(OC)cc1C(=O)CCCC)O2`: the maximal number is active: 2.

On to `O=C(CCCCCCC(=O)Nc1ccccc1)NO`, for which the maximal number is inactive: 1. For `C[C@]12CC[C@@H]3c4ccc(O)cc4C[C@@H](CCCCCCCCC[S+]([O-])CCCC(F)(F)C(F)(F)F)[C@H]3[C@@H]1CC[C@@H]2O` (stereo not given in full), the maximal number was inactive: 1. Regarding `O=C1c2cccc(O)c2C(=O)c2c(O)cccc21`, the maximal number was inactive: 1. For the compound `CC(C)=CCC[C@@H](C)[C@H]1CC[C@@]2(C)C3=C(CC[C@]12C)[C@@]1(C)CC[C@H](O)C(C)(C)[C@@H]1CC3`, the maximal number is inactive: 1. `CCC(CCC(C)C1CCC2C3CCC4CC(O)CCC4(C)C3CCC12C)C(C)C` (stereo not given): the maximal number is inactive: 1.

In the case of `CC(=O)N(CC(O)CO)c1c(I)c(C(=O)NCCO)c(I)c(C(=O)NCC(O)CO)c1I` (stereo not given), the maximal number is inactive: 1. `COC(=O)C[C@H]1C(C)(C)[C@@H](OC(C)=O)[C@@H]2CC3C4CC(=O)O[C@@H](c5ccoc5)[C@]4(C)CCC3[C@@]1(C)C2=O` (stereo not given in full): the maximal number was inactive: 1. Regarding `C=C1C(N)CC2CC1C2(C)C` (stereo not drawn) [3-AMINO-beta-PINENE], the maximal number was inactive: 1. In the case of `CC(=O)OCC(=O)[C@@]12N=C(C)O[C@@H]1C[C@H]1[C@@H]3CCC4=CC(=O)C=C[C@]4(C)[C@H]3[C@@H](O)C[C@@]12C` it was inactive: 1. In the case of `COc1ccc(CC(=O)c2ccc(O)cc2O)cc1` it was inactive: 1.
